Results on two molecules are retold here after patent US20020147151A1 (TRUSTEES OF BOSTON UNIVERSITY, published 2002).

Amino acid sequences for entries named in this document (tags omitted). Residues count along the entry.
UniProt O54824, residues 1204-1322: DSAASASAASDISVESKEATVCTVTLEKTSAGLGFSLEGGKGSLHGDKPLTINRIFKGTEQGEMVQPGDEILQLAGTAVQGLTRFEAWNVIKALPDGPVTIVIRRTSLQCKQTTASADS

Results are given in words; binding and its absence hold for the method and conditions named. Binding seen in cells or lysates may run through a third protein. Some entries that bind do so weakly or less than the wild type.

For this experiment, the target named is 35S-labeled murine rIL-16 (in vitro transcription and translation product, C-terminal 119 amino acids) (mouse) (UniProt O54824). The experiment in a line: competition: peptide (10^-5 M) added to the pull-down of 35S-labeled rIL-16 on GST-D3D4 beads; the filing reads it as sequestering of IL-16.

Turning to TGLWQCLLSEGD [peptide B (…, murine CD4 D4 aa 341-352)], the binding result was “binds”.
As for VSEEQKVVQVVA [peptide A (…, murine CD4 D4 aa 327-338)], the binding result is “binds”.
